{"source": "the supplement of paper PMC8728848", "assay_in_all_cases": "glycan array binding signal (z-score within array); higher = stronger binding", "settings_in_all_cases": "glycan notation: IUPAC condensed, linker removed", "key": {"[1]": {"biological_target": "Fuc(a1-2)Gal(b1-4)[Fuc(a1-3)]GlcNAc", "summary_of_the_method": "(§1)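 The binding signal is a Z-score computed within each array. Data were drawn from 3228 arrays in the Consortium for Functional Glycomics database, restricted to those with a known protein sequence. Scores were averaged over arrays of the same protein sequence at different concentrations or buffers, and over linkers, and negative values can be taken as non-binding.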"}, "[2]": {"biological_target": "Fuc(a1-2)Gal(b1-4)[Fuc(a1-3)]GlcNAc(b1-2)Man(a1-3)[Fuc(a1-2)Gal(b1-4)[Fuc(a1-3)]GlcNAc(b1-2)Man(a1-6)]Man(b1-4)GlcNAc(b1-4)GlcNAc", "summary_of_the_method": "as §1"}, "[3]": {"biological_target": "Fuc(a1-2)Gal(b1-4)[Fuc(a1-3)]GlcNAc(b1-2)[Fuc(a1-2)Gal(b1-4)[Fuc(a1-3)]GlcNAc(b1-4)]Man(a1-3)[Fuc(a1-2)Gal(b1-4)[Fuc(a1-3)]GlcNAc(b1-2)Man(a1-6)]Man(b1-4)GlcNAc(b1-4)GlcNAc", "summary_of_the_method": "as §1"}, "[4]": {"biological_target": "Fuc(a1-2)Gal(b1-4)[Fuc(a1-3)]GlcNAc(b1-3)Gal(b1-4)[Fuc(a1-3)]GlcNAc", "summary_of_the_method": "as §1"}, "[5]": {"biological_target": "Fuc(a1-2)Gal(b1-4)[Fuc(a1-3)]GlcNAc(b1-3)Gal(b1-4)[Fuc(a1-3)]GlcNAc(b1-3)Gal(b1-4)[Fuc(a1-3)]GlcNAc", "summary_of_the_method": "as §1"}, "[6]": {"biological_target": "Fuc(a1-2)Gal(b1-4)[Fuc(a1-3)]GlcNAc(b1-3)GalNAc", "summary_of_the_method": "as §1"}, "Fuc(a1-2)Gal6S(b1-4)Glc": {"biological_target": "Fuc(a1-2)Gal6S(b1-4)Glc", "summary_of_the_method": "as §1"}, "[7]": {"biological_target": "Fuc(a1-2)Gal6S(b1-4)Glc6S", "summary_of_the_method": "as §1"}, "[8]": {"biological_target": "Fuc(a1-2)Gal6S(b1-4)GlcNAc", "summary_of_the_method": "as §1"}, "Fuc(a1-2)[Gal(a1-3)]Gal": {"biological_target": "Fuc(a1-2)[Gal(a1-3)]Gal", "summary_of_the_method": "as §1"}, "[9]": {"biological_target": "Fuc(a1-2)[Gal(a1-3)]Gal(b1-3)GalNAc", "summary_of_the_method": "as §1"}, "[10]": {"biological_target": "Fuc(a1-2)[Gal(a1-3)]Gal(b1-3)GlcNAc", "summary_of_the_method": "as §1"}, "[11]": {"biological_target": "Fuc(a1-2)[Gal(a1-3)]Gal(b1-3)GlcNAc(b1-2)Man(a1-3)[Fuc(a1-2)[Gal(a1-3)]Gal(b1-3)GlcNAc(b1-2)Man(a1-6)]Man(b1-4)GlcNAc(b1-4)GlcNAc", "summary_of_the_method": "as §1"}, "[12]": {"biological_target": "Fuc(a1-2)[Gal(a1-3)]Gal(b1-3)GlcNAc(b1-2)Man(a1-3)[Fuc(a1-2)[Gal(a1-3)]Gal(b1-3)GlcNAc(b1-2)Man(a1-6)]Man(b1-4)GlcNAc(b1-4)[Fuc(a1-6)]GlcNAc", "summary_of_the_method": "as §1"}, "[13]": {"biological_target": "Fuc(a1-2)[Gal(a1-3)]Gal(b1-3)GlcNAc(b1-3)GalNAc", "summary_of_the_method": "as §1"}, "[14]": {"biological_target": "Fuc(a1-2)[Gal(a1-3)]Gal(b1-4)Glc", "summary_of_the_method": "as §1"}, "[15]": {"biological_target": "Fuc(a1-2)[Gal(a1-3)]Gal(b1-4)GlcNAc", "summary_of_the_method": "as §1"}, "[16]": {"biological_target": "Fuc(a1-2)[Gal(a1-3)]Gal(b1-4)GlcNAc(b1-2)Man(a1-3)[Fuc(a1-2)[Gal(a1-3)]Gal(b1-4)GlcNAc(b1-2)Man(a1-6)]Man(b1-4)GlcNAc(b1-4)GlcNAc", "summary_of_the_method": "as §1"}, "[17]": {"biological_target": "Fuc(a1-2)[Gal(a1-3)]Gal(b1-4)GlcNAc(b1-2)Man(a1-3)[Fuc(a1-2)[Gal(a1-3)]Gal(b1-4)GlcNAc(b1-2)Man(a1-6)]Man(b1-4)GlcNAc(b1-4)[Fuc(a1-6)]GlcNAc", "summary_of_the_method": "as §1"}, "[18]": {"biological_target": "Fuc(a1-2)[Gal(a1-3)]Gal(b1-4)GlcNAc(b1-3)GalNAc", "summary_of_the_method": "as §1"}, "[19]": {"biological_target": "Fuc(a1-2)[Gal(a1-3)]Gal(b1-4)[Fuc(a1-3)]Glc", "summary_of_the_method": "as §1"}, "[20]": {"biological_target": "Fuc(a1-2)[Gal(a1-3)]Gal(b1-4)[Fuc(a1-3)]GlcNAc", "summary_of_the_method": "as §1"}, "[21]": {"biological_target": "Fuc(a1-2)[Gal(a1-3)]Gal(b1-4)[Fuc(a1-3)]GlcNAc(b1-3)GalNAc", "summary_of_the_method": "as §1"}, "[22]": {"biological_target": "Fuc(a1-2)[Gal(a1-4)]Gal(b1-4)GlcNAc", "summary_of_the_method": "as §1"}, "[23]": {"biological_target": "Fuc(a1-2)[GalNAc(a1-3)]Gal", "summary_of_the_method": "as §1"}, "[24]": {"biological_target": "Fuc(a1-2)[GalNAc(a1-3)]Gal(b1-3)GalNAc(a1-3)[Fuc(a1-2)]Gal(b1-4)GlcNAc", "summary_of_the_method": "as §1"}, "[25]": {"biological_target": "Fuc(a1-2)[GalNAc(a1-3)]Gal(b1-3)GlcNAc", "summary_of_the_method": "as §1"}, "[26]": {"biological_target": "Fuc(a1-2)[GalNAc(a1-3)]Gal(b1-3)GlcNAc(b1-2)Man(a1-3)[Fuc(a1-2)[GalNAc(a1-3)]Gal(b1-3)GlcNAc(b1-2)Man(a1-6)]Man(b1-4)GlcNAc(b1-4)GlcNAc", "summary_of_the_method": "as §1"}, "[27]": {"biological_target": "Fuc(a1-2)[GalNAc(a1-3)]Gal(b1-3)GlcNAc(b1-2)Man(a1-3)[Fuc(a1-2)[GalNAc(a1-3)]Gal(b1-3)GlcNAc(b1-2)Man(a1-6)]Man(b1-4)GlcNAc(b1-4)[Fuc(a1-6)]GlcNAc", "summary_of_the_method": "as §1"}, "[28]": {"biological_target": "Fuc(a1-2)[GalNAc(a1-3)]Gal(b1-3)GlcNAc(b1-3)GalNAc", "summary_of_the_method": "as §1"}}, "note": "Some of the results follow.", "data": [{"binder": "NanH (Corynebacterium diphtheriae), C6JSW6 (protein) MYSSNRTYSRAILGLSAVLTLSFTSLVAPVNAEEPETVVPATAELEGEVAATLPSAETGLLDAAPPKPVARGAAGDLQLPAVNEKEVFEEGRVIRAPEPDQSRCYRIPALVTAKNGDLLLAFDNRYGGGDGAKTWCRDAPYENMKRINRQNMQTDIQLYRSVDNGQSFEDFGYIAQGTADVRELSYTDPALVTDRTTGKIFAFFVRAYDYRVGQSSAGFNEGDVEAEIQKRDVQDTVVVESLDGGQTWGNMRLLSALTAKVSSISTGDTIFDGRGRFVTSGAGIQLQYGEHAGRLIVPISVDIDPKDSAKFINLAIYSDDHGQTWQAGIGTAGGAGFSGDVSKIVELSDGRLMMSSKDNDKPRWVSYSEDQGENWSTPKRKIIAPPQHPEKHNTGINVGLIRAYPNAPENSAAARVLLYSAPIDQRYSHKHTEDGRNNGWVMGSCDDGKTWSFGRQIEKNRFQYSSMTVMSDGNIGMVYESGDFSTGMNLKFAKFNMAWLGADCHSNEALGLTGDIDKEIVEAQEKAAEATKEAQEAAEKVQKLTEELAAARKENDELKNQVKGFKEAVGDLANEAEDLADKVFKLETAVTEAKEKATVAEKAASDAVTQLQKAESIAEEQKAKAESAAAEAQALREKLERLEGSILTVKENPEAEEIADLSSTAKDAADAARRAATDANGALSGQKQDEEKPAMGLMGILKVLAGIIPLVAIIATIFQTFRLPFNIPGMR", "values": [{"measurement": "glycan array binding signal (z-score)", "setting": "[1]", "result": -0.122}, {"measurement": "glycan array binding signal (z-score)", "setting": "[2]", "result": 0.226}, {"measurement": "glycan array binding signal (z-score)", "setting": "[3]", "result": 0.792}, {"measurement": "glycan array binding signal (z-score)", "setting": "[4]", "result": -1.29}, {"measurement": "glycan array binding signal (z-score)", "setting": "[5]", "result": 1.1}, {"measurement": "glycan array binding signal (z-score)", "setting": "[6]", "result": 3.22}, {"measurement": "glycan array binding signal (z-score)", "setting": "Fuc(a1-2)Gal6S(b1-4)Glc", "result": -0.89}, {"measurement": "glycan array binding signal (z-score)", "setting": "[7]", "result": -1.36}, {"measurement": "glycan array binding signal (z-score)", "setting": "[8]", "result": 0.001}, {"measurement": "glycan array binding signal (z-score)", "setting": "Fuc(a1-2)[Gal(a1-3)]Gal", "result": -0.268}, {"measurement": "glycan array binding signal (z-score)", "setting": "[9]", "result": 0.386}, {"measurement": "glycan array binding signal (z-score)", "setting": "[10]", "result": 0.503}, {"measurement": "glycan array binding signal (z-score)", "setting": "[11]", "result": -0.686}, {"measurement": "glycan array binding signal (z-score)", "setting": "[12]", "result": 1.3}, {"measurement": "glycan array binding signal (z-score)", "setting": "[13]", "result": -1.14}, {"measurement": "glycan array binding signal (z-score)", "setting": "[14]", "result": -0.381}, {"measurement": "glycan array binding signal (z-score)", "setting": "[15]", "result": -1.05}, {"measurement": "glycan array binding signal (z-score)", "setting": "[16]", "result": 0.948}, {"measurement": "glycan array binding signal (z-score)", "setting": "[17]", "result": 0.176}, {"measurement": "glycan array binding signal (z-score)", "setting": "[18]", "result": -1.18}, {"measurement": "glycan array binding signal (z-score)", "setting": "[19]", "result": 0.259}, {"measurement": "glycan array binding signal (z-score)", "setting": "[20]", "result": 0.379}, {"measurement": "glycan array binding signal (z-score)", "setting": "[21]", "result": -0.377}, {"measurement": "glycan array binding signal (z-score)", "setting": "[22]", "result": 0.211}, {"measurement": "glycan array binding signal (z-score)", "setting": "[23]", "result": -1.21}, {"measurement": "glycan array binding signal (z-score)", "setting": "[24]", "result": -0.631}, {"measurement": "glycan array binding signal (z-score)", "setting": "[25]", "result": 0.578}, {"measurement": "glycan array binding signal (z-score)", "setting": "[26]", "result": -0.95}, {"measurement": "glycan array binding signal (z-score)", "setting": "[27]", "result": 0.495}, {"measurement": "glycan array binding signal (z-score)", "setting": "[28]", "result": 1.12}]}]}
